Laboratory results published in patent US20120100152A1.
No constants are given. Whether binding was seen depends on the method and setting. A result given as binding can be weak or reduced; the word gives no strength.

The chains behind the UniProt entries cited, without tags or fusion partners. Where a name states a change or a piece, a line headed by the entry shows the natural chain unless it says otherwise.
UniProt Q61559: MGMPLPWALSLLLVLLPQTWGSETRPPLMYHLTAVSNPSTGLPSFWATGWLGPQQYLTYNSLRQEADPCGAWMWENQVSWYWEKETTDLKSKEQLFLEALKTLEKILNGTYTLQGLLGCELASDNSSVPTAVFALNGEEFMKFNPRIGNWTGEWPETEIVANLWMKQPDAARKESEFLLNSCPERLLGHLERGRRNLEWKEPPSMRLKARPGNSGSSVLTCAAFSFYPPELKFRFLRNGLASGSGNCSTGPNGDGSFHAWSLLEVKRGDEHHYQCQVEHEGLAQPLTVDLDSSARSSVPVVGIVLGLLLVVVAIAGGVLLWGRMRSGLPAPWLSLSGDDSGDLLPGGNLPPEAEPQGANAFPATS
UniProt P55899: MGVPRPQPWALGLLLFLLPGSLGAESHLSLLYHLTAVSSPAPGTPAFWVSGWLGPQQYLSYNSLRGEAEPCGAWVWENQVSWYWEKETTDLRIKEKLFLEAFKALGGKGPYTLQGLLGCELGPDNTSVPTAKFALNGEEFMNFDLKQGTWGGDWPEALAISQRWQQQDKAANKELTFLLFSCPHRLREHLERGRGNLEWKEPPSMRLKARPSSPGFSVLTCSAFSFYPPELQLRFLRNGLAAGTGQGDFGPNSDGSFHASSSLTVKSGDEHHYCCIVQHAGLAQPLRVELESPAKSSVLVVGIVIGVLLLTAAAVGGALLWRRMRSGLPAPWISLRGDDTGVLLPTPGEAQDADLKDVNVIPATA

How the values were obtained:
mouse FcRn (mouse) [1] = target: mouse FcRn (mouse) (UniProt Q61559); assay: Biacore (SPR)
human FcRn (human) [2] = target: human FcRn (human) (UniProt P55899); assay: Biacore (SPR)
human FcRn (human) [3] = target: human FcRn (human) (UniProt P55899); assay: Biacore, human FcRn binding at pH 6.0
mouse FcRn (mouse) [4] = target: mouse FcRn (mouse) (UniProt Q61559); assay: Biacore, mouse FcRn binding at pH 6.0

Measured: binding

B1: humanized antibody 2C3-SFD1/K12 (antibody, V domains shown)
VH: EVQLVESGGGLVQPGGSLRLSCAASGFTFNTYWMNWVRQAPGKGLEWVGQIRLKSNNYATHYAESVKGRFTISRDDSKNSLYLQMNSLKTEDTAVYYCTPVDFWGQGTTVTVSS
VL: DIVMTQTPLSLSVTPGQPASISCKSSQSLLYSNGKTYLNWLLQKPGQSPQRLIYLVSKLDSGVPDRFSGSGSGTDFTLKISRVEAEDVGVYYCVQGTHLHTFGQGTRLEIKR
binds: all assays above
